Reference: the supplement of paper PMC10735217
Structures can show the parent of a compound that is named as a salt. The list shows a part of the results. This data set is noisy: repeats of one test often differ as much as different tests do.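 Human kidney-derived cells stably carry a construct in which eight TEAD-binding elements drive luciferase, measured by luminescence in a drug-repurposing library screen. A hit is any compound whose signal exceeds the plate mean by more than five robust Z scores.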

System: HEK293A TEAD-LUC reporter
Experiment: TEAD-luciferase reporter activity (YAP activation), robust Z score vs plate; higher = stronger YAP/TEAD activation
Conditions: 24 h

| Structure (SMILES) | TEAD-luciferase reporter activity (compound concentration: 200 nM) | TEAD-luciferase reporter activity (compound concentration: 2 uM) | TEAD-luciferase reporter activity (compound concentration: 10 uM) |
| --- | --- | --- | --- |
| CCc1cccc2sc(Sc3ccc4c(c3)CC[C@H]3N(C)C(=O)CC[C@]43C)nc12 [Izonsteride] | inactive: -1.03 | inactive: 1.32 | inactive: 2.1 |
| NCC(=O)NC1CC2(CCN(C(=O)Cc3ccc(O)cc3)CC2)c2ccccc21 (configuration not stated) | inactive: -1.66 |  | inactive: 0.528 |
| CCN(Cc1ccc(OC)c(OC2CCCC2)c1)c1ncnc2[nH]c(C(C)C)nc12 | inactive: -0.719 | inactive: 0.73 | inactive: 0.572 |
| CCN(CC)C(=O)COC(=O)/C=C/C(=O)OC | inactive: 0.665 | inactive: 0.162 | inactive: -1.34 |
| O=C(O)[C@@H]1C[C@@H](O)CN1 [L-Hydroxyproline] | inactive: -1.84 | inactive: -2.57 | inactive: -1.3 |
| Clc1ccc2nsnc2c1NC1=NCCN1 [tizanidine hydrochloride] |  | inactive: 0.107 |  |
| Clc1ccc2nsnc2c1NC1=NCCN1 | inactive: -0.441 |  | inactive: -1.35 |
| CC1(C)CCSc2ccc(C#Cc3ccc(C(=O)O)cn3)cc21 [Tazarotenic acid] | inactive: -0.86 | inactive: 2.98 | inactive: -2.89 |
| Cc1cccc(Nc2ccccc2C(=O)O)c1C [mefenamic acid, vaginal] |  | inactive: -1.34 |  |
| Cc1cccc(Nc2ccccc2C(=O)O)c1C | inactive: -0.144 |  | inactive: 1.08 |
| Nc1nc(O)nc2c1ncn2[C@@H]1O[C@H](CO)[C@@H](O)[C@H]1O | inactive: -1.22 | inactive: -1.47 | inactive: 0.679 |
| CCOC(=O)C1=C(C)N(CCN2CCOCC2)C(C)=C(C(=O)OCC)C1c1ccccc1C(F)(F)F [flordipine] | inactive: -0.965 | inactive: 0.41 | inactive: -1.11 |
| Clc1ccc(CO/N=C(\Cn2ccnc2)c2ccc(Cl)cc2Cl)c(Cl)c1 | inactive: 0.621 |  | inactive: 2.32 |
| Clc1ccc(CO/N=C(\Cn2ccnc2)c2ccc(Cl)cc2Cl)c(Cl)c1 [oxiconazole] |  | inactive: 0.624 |  |
| CCCCC[C@H](O)/C=C/[C@H]1[C@H](O)CC(=O)[C@@H]1CCCCCCCO | inactive: -0.974 | inactive: -0.665 | inactive: -0.702 |
| O=c1oc2c(O)c(O)cc3c(=O)oc4c(O)c(O)cc1c4c23 | inactive: 0.756 | inactive: -2.03 | inactive: -1.29 |
| O=C(O)c1cc(O)c2c3nc4ccccc4oc-3cc(=O)c2n1 [Pyrphenoxone] | inactive: 0.553 | inactive: -1.05 | inactive: 1.92 |
| CNCC(O)c1ccc(O)c(O)c1 (racemic) [(+/-)-Epinephrine hydrochloride329-63-5] | inactive: -2.21 |  | inactive: -0.455 |
| CC1(C2OCCO2)C=C(N2CCCC2=O)c2cc([N+](=O)[O-])ccc2O1 (configuration not stated) | inactive: -0.314 | inactive: -0.812 | inactive: 0.864 |
| NC[C@@](O)(c1ccc(Cl)cc1)c1ccc(-c2cn[nH]c2)cc1 | inactive: 1.97 | active: 12.6 | active: 6.42 |

| Structure (SMILES) | TEAD-luciferase reporter activity (compound concentration: 200 nM) | TEAD-luciferase reporter activity (compound concentration: 2 uM) | TEAD-luciferase reporter activity (compound concentration: 10 uM) |
| --- | --- | --- | --- |
| CC1(c2ccncc2)CCC(=O)NC1=O (configuration not stated) | inactive: -0.175 | inactive: -2.04 | inactive: 4.46 |
| COc1ccccc1OCC1CNC(=O)O1 (configuration not stated) | inactive: -0.883 | inactive: -1.35 | inactive: -0.429 |
| CC(=O)c1cc(C(C)(C)C)c(O)c(C(C)(C)C)c1 | inactive: 0.166 | inactive: -0.247 | inactive: 2.56 |
| O=C(O)CC(NS(=O)(=O)c1ccc2ccccc2c1)C(=O)NCCc1ccccc1 (configuration not stated) | inactive: -1.4 | inactive: 0.392 | inactive: 1.08 |
| c1ccc(-c2nc(SCc3cccnc3)[nH]c2-c2ccccc2)cc1 | inactive: -0.371 | inactive: -1.16 | inactive: 0.56 |
| Cc1ccc(/C=C/C(=O)NC[C@@H]2CN(c3ccc(N4CCOCC4)c(F)c3)C(=O)O2)cc1 | inactive: 0.549 | inactive: -1.28 | inactive: -0.212 |
| N=C(N)Nc1ccc(C(=O)NCCC[C@H]2C(=O)N(CC(=O)O)CCN2C(=O)CNC(=O)c2ccc(NC(=N)N)cc2)cc1 | inactive: -1.77 | inactive: -0.904 | inactive: 2.79 |
| CCC(=O)[C@@]12OC(C)(C)O[C@@H]1C[C@H]1[C@@H]3CCC4=CC(=O)CC[C@]4(C)[C@H]3CC[C@@]12C | inactive: -0.569 | inactive: -0.469 | inactive: 2.38 |
| CCOC(=O)N(Cc1ccccc1)C1CC1 | inactive: -0.875 | inactive: 1.13 | inactive: 4.1 |
| O=C(O)CCC(=O)c1ccc(OCc2ccccc2)cc1 | inactive: -1.1 | inactive: -0.495 | inactive: -0.000701 |
| CCOC(=O)C1=C(C)NC(CN(C)CC(C)(C)NCC(O)COc2ccccc2OC)=C(C(=O)OCC)C1c1cccc([N+](=O)[O-])c1 (configuration not stated) | inactive: -0.543 | inactive: -0.963 | inactive: -0.139 |
| CCCCC(C)(O)C/C=C/[C@H]1[C@H](O)CC(=O)[C@@H]1CCCCCCC(=O)O (some centres not stated) | inactive: -1.81 | inactive: -1.53 | inactive: 1.97 |
| O=C(O)CN(CC(=O)O)c1ccccc1OCCOc1ccccc1N(CC(=O)O)CC(=O)O [BAPTA (DP-b99 metabolite)] |  | inactive: 0.999 |  |
| O=C(O)CN(CC(=O)O)c1ccccc1OCCOc1ccccc1N(CC(=O)O)CC(=O)O [DP-b99 metabolite] | inactive: 0.654 |  | active: 8.93 |
| CCn1cc(C(=O)O)c(=O)c2cnc(N3CCNCC3)nc21 [pipemidic acid] |  | inactive: 0.987 |  |
| CCn1cc(C(=O)O)c(=O)c2cnc(N3CCNCC3)nc21 | inactive: -0.0821 |  | inactive: 0.934 |
| COC(=O)C1=C(C)NC(C)=C(c2nc(CN(C)Cc3ccccc3)no2)C1c1cccc([N+](=O)[O-])c1 (configuration not stated) | inactive: -1.75 | inactive: -0.446 | inactive: -1.21 |
| C[C@]12CCC(=O)C=C1CC[C@@H]1[C@@H]2CC[C@@]2(C)[C@H]1CC[C@]2(O)C(=O)COP(=O)([O-])[O-] | inactive: -0.451 |  | inactive: 1.29 |
| O=C1NCc2ccccc2CC12CCCCN2CC1CCCC1 (configuration not stated) | inactive: -1.55 |  | inactive: 4.08 |
| COc1cccc(-c2ccc(C(=O)NCCNC(=O)c3ccccn3)cc2)c1 | inactive: 3.24 |  | inactive: 0.76 |

A different layout for part of the listing above.
Structure (SMILES) | TEAD-luciferase reporter activity (compound concentration: 200 nM) | TEAD-luciferase reporter activity (compound concentration: 2 uM) | TEAD-luciferase reporter activity (compound concentration: 10 uM)
CC1(c2ccncc2)CCC(=O)NC1=O (configuration not stated) | inactive: -0.175 | inactive: -2.04 | inactive: 4.46
COc1ccccc1OCC1CNC(=O)O1 (configuration not stated) | inactive: -0.883 | inactive: -1.35 | inactive: -0.429
CC(=O)c1cc(C(C)(C)C)c(O)c(C(C)(C)C)c1 | inactive: 0.166 | inactive: -0.247 | inactive: 2.56
c1ccc(-c2nc(SCc3cccnc3)[nH]c2-c2ccccc2)cc1 | inactive: -0.371 | inactive: -1.16 | inactive: 0.56
Cc1ccc(/C=C/C(=O)NC[C@@H]2CN(c3ccc(N4CCOCC4)c(F)c3)C(=O)O2)cc1 | inactive: 0.549 | inactive: -1.28 | inactive: -0.212
N=C(N)Nc1ccc(C(=O)NCCC[C@H]2C(=O)N(CC(=O)O)CCN2C(=O)CNC(=O)c2ccc(NC(=N)N)cc2)cc1 | inactive: -1.77 | inactive: -0.904 | inactive: 2.79
CCOC(=O)N(Cc1ccccc1)C1CC1 | inactive: -0.875 | inactive: 1.13 | inactive: 4.1
O=C(O)CCC(=O)c1ccc(OCc2ccccc2)cc1 | inactive: -1.1 | inactive: -0.495 | inactive: -0.000701
CCOC(=O)C1=C(C)NC(CN(C)CC(C)(C)NCC(O)COc2ccccc2OC)=C(C(=O)OCC)C1c1cccc([N+](=O)[O-])c1 (configuration not stated) | inactive: -0.543 | inactive: -0.963 | inactive: -0.139
CCCCC(C)(O)C/C=C/[C@H]1[C@H](O)CC(=O)[C@@H]1CCCCCCC(=O)O (some centres not stated) | inactive: -1.81 | inactive: -1.53 | inactive: 1.97
O=C(O)CN(CC(=O)O)c1ccccc1OCCOc1ccccc1N(CC(=O)O)CC(=O)O [DP-b99 metabolite] | inactive: 0.654 |  | active: 8.93
CCn1cc(C(=O)O)c(=O)c2cnc(N3CCNCC3)nc21 | inactive: -0.0821 |  | inactive: 0.934
COC(=O)C1=C(C)NC(C)=C(c2nc(CN(C)Cc3ccccc3)no2)C1c1cccc([N+](=O)[O-])c1 (configuration not stated) | inactive: -1.75 | inactive: -0.446 | inactive: -1.21
C[C@]12CCC(=O)C=C1CC[C@@H]1[C@@H]2CC[C@@]2(C)[C@H]1CC[C@]2(O)C(=O)COP(=O)([O-])[O-] | inactive: -0.451 |  | inactive: 1.29
O=C1NCc2ccccc2CC12CCCCN2CC1CCCC1 (configuration not stated) | inactive: -1.55 |  | inactive: 4.08
COc1cccc(-c2ccc(C(=O)NCCNC(=O)c3ccccn3)cc2)c1 | inactive: 3.24 |  | inactive: 0.76

Later entries.

| Structure (SMILES) | TEAD-luciferase reporter activity (compound concentration: 200 nM) | TEAD-luciferase reporter activity (compound concentration: 2 uM) | TEAD-luciferase reporter activity (compound concentration: 10 uM) |
| --- | --- | --- | --- |
| CC1=C(C(=O)O)N2C(=O)C(NC(=O)C(N)c3ccc(O)cc3)C2SC1 (configuration not stated) [cefadroxil] | inactive: -1.34 | inactive: 0.949 | inactive: -1.51 |
| C[C@@H]1C(N)CN1c1nc2c(cc1F)c(=O)c(C(=O)O)cn2C1CC1 (some centres not stated) | inactive: -0.41 | inactive: -0.222 | inactive: -0.0002 |
| COc1cccc(CN2CCC3(CC2)NC(=O)c2ccccc2O3)c1 | inactive: -0.222 |  | inactive: 0.46 |
| CC(=O)NCC(=O)N1Cc2ccccc2CC2(CCCN2CC2CCCC2)C1 (configuration not stated) | inactive: -2.81 |  | inactive: -0.0219 |
| COc1ccc2c(c1)c1c3n2CCN(C)C3=NCC1 | inactive: -3.07 | inactive: 1.9 | inactive: 0.991 |
| NCC1OB(O)c2ccccc21 (configuration not stated) | inactive: -0.809 | inactive: -0.92 | inactive: 0.872 |
| COc1ccc(Sc2nc(N)nc3c2ncn3CCOCP(=O)(OCC(F)(F)F)OCC(F)(F)F)cc1 | inactive: -0.086 | inactive: -0.836 | inactive: -1 |
| CCOP(=O)(Cc1ccc(C(=O)Nc2ccc(Br)cc2C#N)cc1)OCC [Ibrolipim] | inactive: -0.792 | inactive: -0.189 | inactive: 0.588 |
| COc1cc(/C=C2\CCC/C(=C\c3ccc(O)c(OC)c3)C2=O)ccc1O [Cyclovalone] | active: 6.4 | inactive: 0.0824 | inactive: 0.667 |
| O=C(O)CCC(CCCS)C(=O)O (configuration not stated) | inactive: 0.443 | inactive: -0.479 | inactive: -1.42 |
| CCCCCCCCCCCCCC(=O)OC(C)C [Isopropyl myristate] | inactive: -1.85 | inactive: -0.369 | inactive: -0.985 |
| C[C@@H]1C/C=C/C=C/C=C/C=C/[C@H](O[C@@H]2O[C@H](C)[C@@H](O)[C@H](N)[C@@H]2O)C[C@@H]2O[C@](O)(C[C@@H](O)C[C@H]3O[C@@H]3/C=C/C(=O)O1)C[C@H](O)[C@H]2C(=O)O [Natamycin] | inactive: -0.4 | inactive: 0.951 | inactive: -0.969 |
| CCN(CC)c1nc(NN)nc(N(CC)CC)n1 | inactive: 0.232 | inactive: 0.227 | inactive: 1.2 |
| CO/N=C(\C(=O)N[C@@H]1C(=O)N2C(C(=O)OCOC(=O)C(C)(C)C)=C(C)CS[C@H]12)c1csc(N)n1 [Cefetamet pivoxil (hydrochloride)] | inactive: -0.828 | inactive: 0.329 | inactive: 1.69 |
| CCC(=O)O[C@]1(C(=O)SCF)[C@H](C)CC2C3C[C@H](F)C4=CC(=O)C=C[C@]4(C)[C@@]3(F)[C@@H](O)C[C@@]21C (some centres not stated) [Fluticasone propionate] | inactive: 0.524 | inactive: 0.325 | inactive: 2.34 |
| CC(C)(CCc1ccc(C(N)=O)cc1)NC[C@H](O)c1ccccc1 | inactive: -0.365 | inactive: -0.888 | active: 8.19 |
| C#CCOc1ccc2c(c1)c(-c1ccc(C(C)C)cc1)nc(=O)n2Cc1ccc(Br)cc1 | inactive: 3.49 | inactive: 1.91 | inactive: 4.36 |
| CC1(C)C=C(c2cccc[n+]2[O-])c2cc(Cl)c(Cl)cc2OC1 | inactive: -1.78 | inactive: -0.328 | inactive: -0.249 |
